Values from PubChem BioAssay AID504786 (Drosophila RNAi Screening Center, 2011).
Test: 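Fly genes required for HIF-dependent transcription when hypoxia is mimicked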 (primary screen). Cells: Drosophila S2 cells with a stable HIF luciferase reporter. Reagent: long dsRNA against Drosophila genes, about 0.2 µg dsRNA per well of a 384-well plate. Timing: three days of knock-down, then 20 h of DFO before reading. Treatment: desferrioxamine (DFO) at 100 µM, an iron chelator that mimics hypoxia, for 20 h. Read-out: 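HIF reporter luminescence in cells given 100 µM DFO for 20 h, using the mouse ldh-a hypoxia-response element, scored as per-plate z-scores; higher means greater loss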. Direction: z-score: higher = stronger loss of HIF reporter signal.
In all, the deposit lists about 21,000 reagents; this is an unselected part of those that have a named target and a result. 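Primary screen; positive scores mean lost reporter signal, so the sign may be inverted from the usual convention.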

Silencing of snky [DRSC09838] came out at: z-score, replicate 1 = -0.2; z-score, replicate 2 = -0.4.
Silencing of AnxB9 [DRSC14111] came out at: z-score, replicate 1 = -0.2; z-score, replicate 2 = -0.4.
Obp93a [DRSC15220] scored z-score, replicate 1 = 0.2; z-score, replicate 2 = -0.8.
Knock-down of PIP82 [DRSC18694] resulted in: z-score, replicate 1 = 0; z-score, replicate 2 = 0.1.
cas [DRSC12373] gave z-score, replicate 1 = -0.3; z-score, replicate 2 = -0.4.
Depletion of CG8564 [DRSC10997] came out at: z-score, replicate 1 = -0.3; z-score, replicate 2 = -0.3.
For Gr59c [DRSC04185], the values are z-score, replicate 1 = -0.4; z-score, replicate 2 = -0.2.
With knock-down of Lamtor5 [DRSC18491], the record shows z-score, replicate 1 = -0.3; z-score, replicate 2 = -0.9.

Only “z-score, replicate 2”, for 3 of the entries above:
AnxB9 [DRSC14111] = -0.4
Obp93a [DRSC15220] = -0.8
PIP82 [DRSC18694] = 0.1

Next records:
For Pmm2 [DRSC09780] the deposit lists z-score, replicate 1 = -0.2; z-score, replicate 2 = -0.2.
Depletion of CG8661 [DRSC20115] gave: z-score, replicate 1 = 0.1; z-score, replicate 2 = 1.3.
Against mRpS25 [DRSC19598], the values are z-score, replicate 1 = 1.1; z-score, replicate 2 = 0.4.
Depletion of CG43127 [DRSC09039] gave: z-score, replicate 1 = -0.4; z-score, replicate 2 = -0.8.
Depletion of eIF3m [DRSC07142] resulted in: z-score, replicate 1 = 5.2; z-score, replicate 2 = 3.8.
CG18128 [DRSC04304] showed z-score, replicate 1 = -0.3; z-score, replicate 2 = 0.1.
For Nup93-1 [DRSC19344], the entry reads z-score, replicate 1 = 0.5; z-score, replicate 2 = 1.4.
For Osi11 [DRSC12282], the values are z-score, replicate 1 = -0.2; z-score, replicate 2 = 0.4.
